Reference: the odorant receptor screen of Mainland et al. (2015)
Several values for one entry are separate records, joined by “and”; a condition that tells them apart may be missing. Equal values may be shown once. The list shows a part of the results. Single wells; the ratio to wells without odorant was worked out here, and repeats agree poorly.

Legend:
Assay in all cases: odorant receptor activation (CRE luciferase / Renilla) (fold of no-odor wells); higher = more activation
Settings in all cases: 100 µM
OR6C3 clone 1424 = test system: OR6C3 clone 1424
OR6C4 I37V clone 1412 = test system: OR6C4 I37V clone 1412
OR6C6 clone 1426 = test system: OR6C6 clone 1426
OR6C65 clone 1459 = test system: OR6C65 clone 1459
OR6C68 A45T clone 1451 = test system: OR6C68 A45T clone 1451
OR6C70 clone 1427 = test system: OR6C70 clone 1427
OR6C74 clone 1441 = test system: OR6C74 clone 1441
OR6C75 clone 1519 = test system: OR6C75 clone 1519
OR6C76 clone 1414 = test system: OR6C76 clone 1414
OR6F1 clone 1039 = test system: OR6F1 clone 1039

CCOc1cc(C=O)ccc1O [ethyl vanillin]
odorant receptor activation (OR6C3 clone 1424): 1.11 and 1.2 | odorant receptor activation (OR6C4 I37V clone 1412): 0.968 and 1.17 | odorant receptor activation (OR6C6 clone 1426): 1.05 and 1.38 | odorant receptor activation (OR6C65 clone 1459): 1.12 and 3.12 and 1.09 | odorant receptor activation (OR6C68 A45T clone 1451): 0.851 | odorant receptor activation (OR6C70 clone 1427): 1.27 and 1.07 | odorant receptor activation (OR6C74 clone 1441): 1.5 and 1.42 | odorant receptor activation (OR6C75 clone 1519): 1.15 and 2.08 and 1.37 | odorant receptor activation (OR6C76 clone 1414): 1.06 | odorant receptor activation (OR6F1 clone 1039): 1.09 and 1.14

CS [methanethiol]
odorant receptor activation (OR6C3 clone 1424): 0.964 | odorant receptor activation (OR6C4 I37V clone 1412): 0.988 | odorant receptor activation (OR6C6 clone 1426): 1.16 | odorant receptor activation (OR6C65 clone 1459): 1.13 | odorant receptor activation (OR6C68 A45T clone 1451): 0.82 | odorant receptor activation (OR6C70 clone 1427): 1.02 | odorant receptor activation (OR6C74 clone 1441): 1 | odorant receptor activation (OR6C75 clone 1519): 0.82 | odorant receptor activation (OR6C76 clone 1414): 0.688 | odorant receptor activation (OR6F1 clone 1039): 0.784

CCCCOC(C)=O [butyl acetate]
odorant receptor activation (OR6C3 clone 1424): 0.178 | odorant receptor activation (OR6C4 I37V clone 1412): 0.244 | odorant receptor activation (OR6C6 clone 1426): 0.185 | odorant receptor activation (OR6C65 clone 1459): 0.904 | odorant receptor activation (OR6C68 A45T clone 1451): 1.06 | odorant receptor activation (OR6C70 clone 1427): 0.244 | odorant receptor activation (OR6C74 clone 1441): 0.134 | odorant receptor activation (OR6C75 clone 1519): 1.1 | odorant receptor activation (OR6C76 clone 1414): 0.148 | odorant receptor activation (OR6F1 clone 1039): 0.962

CCC(C)=O [2-butanone]
odorant receptor activation (OR6C3 clone 1424): 0.662 | odorant receptor activation (OR6C4 I37V clone 1412): 1.04 | odorant receptor activation (OR6C6 clone 1426): 1.52 | odorant receptor activation (OR6C65 clone 1459): 0.997 | odorant receptor activation (OR6C68 A45T clone 1451): 0.608 | odorant receptor activation (OR6C70 clone 1427): 1.09 | odorant receptor activation (OR6C74 clone 1441): 1.05 | odorant receptor activation (OR6C75 clone 1519): 1.19 | odorant receptor activation (OR6C76 clone 1414): 0.365 | odorant receptor activation (OR6F1 clone 1039): 3.21
